Data as given in the supplement of paper PMC10849652.
This is one part of the list. Residues, ends and D or L forms follow the SMILES beside them. *: point of attachment. Cbz = O=C(OCc1ccccc1)*

The chains behind the UniProt entries cited, without tags or fusion partners. Where a name states a change or a piece, a line headed by the entry shows the natural chain unless it says otherwise.
UniProt P19532: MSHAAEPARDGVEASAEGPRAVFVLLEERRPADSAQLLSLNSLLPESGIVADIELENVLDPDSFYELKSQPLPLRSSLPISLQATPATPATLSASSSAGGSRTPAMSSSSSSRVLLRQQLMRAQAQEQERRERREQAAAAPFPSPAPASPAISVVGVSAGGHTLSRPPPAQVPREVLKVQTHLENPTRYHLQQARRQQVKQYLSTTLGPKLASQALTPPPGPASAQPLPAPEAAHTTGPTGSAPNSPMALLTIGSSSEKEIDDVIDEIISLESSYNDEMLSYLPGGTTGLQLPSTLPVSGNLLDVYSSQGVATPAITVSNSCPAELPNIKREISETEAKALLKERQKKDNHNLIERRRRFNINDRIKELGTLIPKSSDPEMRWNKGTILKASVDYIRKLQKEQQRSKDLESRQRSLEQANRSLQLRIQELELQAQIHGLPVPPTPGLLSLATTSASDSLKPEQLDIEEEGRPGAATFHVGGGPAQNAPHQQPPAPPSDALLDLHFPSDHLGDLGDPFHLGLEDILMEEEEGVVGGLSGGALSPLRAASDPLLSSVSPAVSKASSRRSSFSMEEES
UniProt P36897: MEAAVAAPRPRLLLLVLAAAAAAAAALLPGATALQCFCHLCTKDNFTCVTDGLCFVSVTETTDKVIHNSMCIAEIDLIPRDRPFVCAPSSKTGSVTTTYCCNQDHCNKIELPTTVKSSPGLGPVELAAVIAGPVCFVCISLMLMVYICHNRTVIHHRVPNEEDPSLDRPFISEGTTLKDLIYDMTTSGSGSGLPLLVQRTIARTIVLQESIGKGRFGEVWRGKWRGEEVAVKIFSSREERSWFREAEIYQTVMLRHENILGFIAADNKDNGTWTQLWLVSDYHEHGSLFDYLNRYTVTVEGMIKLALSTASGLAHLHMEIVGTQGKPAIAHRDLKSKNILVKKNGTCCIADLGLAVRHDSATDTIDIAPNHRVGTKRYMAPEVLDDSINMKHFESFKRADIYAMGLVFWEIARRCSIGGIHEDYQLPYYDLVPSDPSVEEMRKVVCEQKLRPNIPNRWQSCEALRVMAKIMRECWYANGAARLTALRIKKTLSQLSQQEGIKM
UniProt Q9Y6I9: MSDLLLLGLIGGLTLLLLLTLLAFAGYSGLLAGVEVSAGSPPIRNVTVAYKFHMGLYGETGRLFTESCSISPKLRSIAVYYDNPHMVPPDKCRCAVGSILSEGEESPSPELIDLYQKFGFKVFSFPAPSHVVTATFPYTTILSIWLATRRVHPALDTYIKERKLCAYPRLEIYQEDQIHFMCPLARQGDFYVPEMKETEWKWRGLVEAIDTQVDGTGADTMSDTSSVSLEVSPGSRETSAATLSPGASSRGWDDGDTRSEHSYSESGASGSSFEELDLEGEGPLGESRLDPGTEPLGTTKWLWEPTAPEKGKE
UniProt Q9Y5L4: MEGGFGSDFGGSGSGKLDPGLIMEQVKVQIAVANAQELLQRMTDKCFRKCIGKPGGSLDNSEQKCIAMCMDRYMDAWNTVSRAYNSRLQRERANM
UniProt P10646, whole entry, looked up: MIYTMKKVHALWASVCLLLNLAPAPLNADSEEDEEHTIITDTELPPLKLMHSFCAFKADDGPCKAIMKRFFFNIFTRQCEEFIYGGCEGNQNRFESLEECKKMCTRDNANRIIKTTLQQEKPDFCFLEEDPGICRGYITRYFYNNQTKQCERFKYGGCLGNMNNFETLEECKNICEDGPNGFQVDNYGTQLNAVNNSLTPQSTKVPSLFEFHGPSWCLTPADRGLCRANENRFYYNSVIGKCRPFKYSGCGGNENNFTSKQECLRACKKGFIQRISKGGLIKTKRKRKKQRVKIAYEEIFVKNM
UniProt Q9NUJ3: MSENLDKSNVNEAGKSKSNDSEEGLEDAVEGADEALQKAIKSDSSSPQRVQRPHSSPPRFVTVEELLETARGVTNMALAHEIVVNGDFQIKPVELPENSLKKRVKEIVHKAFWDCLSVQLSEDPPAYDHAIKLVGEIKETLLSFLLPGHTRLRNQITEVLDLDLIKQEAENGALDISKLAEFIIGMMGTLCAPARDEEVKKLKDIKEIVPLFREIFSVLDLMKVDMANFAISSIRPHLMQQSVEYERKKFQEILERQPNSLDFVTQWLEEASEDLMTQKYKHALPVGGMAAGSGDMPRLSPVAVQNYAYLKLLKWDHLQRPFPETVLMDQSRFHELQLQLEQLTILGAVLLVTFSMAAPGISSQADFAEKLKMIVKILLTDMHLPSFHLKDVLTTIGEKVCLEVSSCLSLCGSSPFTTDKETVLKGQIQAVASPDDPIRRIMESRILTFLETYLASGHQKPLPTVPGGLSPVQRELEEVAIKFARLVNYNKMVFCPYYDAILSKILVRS
UniProt Q969Z0: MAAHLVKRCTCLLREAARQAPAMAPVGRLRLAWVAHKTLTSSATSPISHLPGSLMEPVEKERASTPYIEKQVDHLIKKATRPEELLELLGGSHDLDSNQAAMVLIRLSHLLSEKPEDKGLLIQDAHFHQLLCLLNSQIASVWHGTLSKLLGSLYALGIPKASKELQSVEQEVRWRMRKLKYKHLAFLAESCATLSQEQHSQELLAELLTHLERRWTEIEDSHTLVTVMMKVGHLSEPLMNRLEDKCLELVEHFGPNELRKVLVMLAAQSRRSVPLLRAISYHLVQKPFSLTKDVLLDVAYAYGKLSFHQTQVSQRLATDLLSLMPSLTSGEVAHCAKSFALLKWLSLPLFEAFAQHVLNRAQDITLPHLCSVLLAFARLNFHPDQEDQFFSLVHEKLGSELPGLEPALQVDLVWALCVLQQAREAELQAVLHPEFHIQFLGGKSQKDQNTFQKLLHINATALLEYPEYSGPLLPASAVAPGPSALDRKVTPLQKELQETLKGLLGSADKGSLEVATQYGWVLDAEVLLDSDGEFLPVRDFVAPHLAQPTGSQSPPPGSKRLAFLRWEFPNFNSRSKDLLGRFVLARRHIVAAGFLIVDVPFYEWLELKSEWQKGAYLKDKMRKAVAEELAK
UniProt Q8WUH2: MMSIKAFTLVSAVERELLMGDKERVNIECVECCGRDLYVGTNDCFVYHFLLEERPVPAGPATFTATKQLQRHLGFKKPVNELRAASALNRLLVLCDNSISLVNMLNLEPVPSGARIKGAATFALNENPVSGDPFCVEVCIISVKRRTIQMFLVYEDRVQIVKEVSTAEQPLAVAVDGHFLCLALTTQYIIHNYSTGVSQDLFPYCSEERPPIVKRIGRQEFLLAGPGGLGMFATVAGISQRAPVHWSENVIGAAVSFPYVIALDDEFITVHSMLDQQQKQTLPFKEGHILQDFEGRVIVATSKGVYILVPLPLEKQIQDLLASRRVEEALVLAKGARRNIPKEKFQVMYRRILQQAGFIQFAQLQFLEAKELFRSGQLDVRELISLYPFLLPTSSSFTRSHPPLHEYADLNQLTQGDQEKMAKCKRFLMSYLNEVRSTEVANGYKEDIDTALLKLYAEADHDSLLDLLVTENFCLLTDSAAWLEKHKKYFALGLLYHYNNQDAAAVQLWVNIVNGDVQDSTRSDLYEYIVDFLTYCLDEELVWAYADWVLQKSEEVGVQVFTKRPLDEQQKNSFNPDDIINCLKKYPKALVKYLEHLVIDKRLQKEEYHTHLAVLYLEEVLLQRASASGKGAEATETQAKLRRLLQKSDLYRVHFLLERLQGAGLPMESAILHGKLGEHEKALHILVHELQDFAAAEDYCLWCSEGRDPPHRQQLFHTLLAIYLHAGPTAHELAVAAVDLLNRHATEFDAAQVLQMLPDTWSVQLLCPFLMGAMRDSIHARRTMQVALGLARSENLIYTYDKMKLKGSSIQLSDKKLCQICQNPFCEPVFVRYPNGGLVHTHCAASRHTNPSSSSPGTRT
UniProt Q15582: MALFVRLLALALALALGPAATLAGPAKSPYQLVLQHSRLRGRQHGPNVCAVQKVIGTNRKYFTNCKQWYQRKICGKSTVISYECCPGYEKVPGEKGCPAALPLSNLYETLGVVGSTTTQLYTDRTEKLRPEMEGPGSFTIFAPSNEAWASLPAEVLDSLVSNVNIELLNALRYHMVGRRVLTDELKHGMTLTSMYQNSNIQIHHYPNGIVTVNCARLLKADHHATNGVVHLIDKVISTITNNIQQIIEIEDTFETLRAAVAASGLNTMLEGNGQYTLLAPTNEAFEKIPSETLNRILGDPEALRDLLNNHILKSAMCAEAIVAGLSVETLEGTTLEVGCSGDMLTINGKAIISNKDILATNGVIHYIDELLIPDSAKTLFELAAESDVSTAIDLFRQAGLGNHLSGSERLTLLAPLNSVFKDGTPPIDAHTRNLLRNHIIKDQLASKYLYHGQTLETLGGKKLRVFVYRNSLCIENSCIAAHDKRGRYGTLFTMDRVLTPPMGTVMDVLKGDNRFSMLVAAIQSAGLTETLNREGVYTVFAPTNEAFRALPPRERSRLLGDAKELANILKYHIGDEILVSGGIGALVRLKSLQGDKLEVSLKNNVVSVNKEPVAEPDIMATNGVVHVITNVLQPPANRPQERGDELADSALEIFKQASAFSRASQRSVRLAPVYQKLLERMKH
UniProt Q9Y5J6: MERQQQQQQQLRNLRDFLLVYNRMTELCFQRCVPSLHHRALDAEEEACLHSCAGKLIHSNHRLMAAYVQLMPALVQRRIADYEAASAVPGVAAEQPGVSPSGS
UniProt Q9BU02: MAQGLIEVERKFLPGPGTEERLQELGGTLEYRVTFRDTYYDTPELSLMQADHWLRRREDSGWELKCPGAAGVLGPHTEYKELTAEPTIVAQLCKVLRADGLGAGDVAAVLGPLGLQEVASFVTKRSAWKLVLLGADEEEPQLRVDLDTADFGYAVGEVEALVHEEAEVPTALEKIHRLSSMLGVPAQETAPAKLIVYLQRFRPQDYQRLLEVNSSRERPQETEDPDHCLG
UniProt O95455: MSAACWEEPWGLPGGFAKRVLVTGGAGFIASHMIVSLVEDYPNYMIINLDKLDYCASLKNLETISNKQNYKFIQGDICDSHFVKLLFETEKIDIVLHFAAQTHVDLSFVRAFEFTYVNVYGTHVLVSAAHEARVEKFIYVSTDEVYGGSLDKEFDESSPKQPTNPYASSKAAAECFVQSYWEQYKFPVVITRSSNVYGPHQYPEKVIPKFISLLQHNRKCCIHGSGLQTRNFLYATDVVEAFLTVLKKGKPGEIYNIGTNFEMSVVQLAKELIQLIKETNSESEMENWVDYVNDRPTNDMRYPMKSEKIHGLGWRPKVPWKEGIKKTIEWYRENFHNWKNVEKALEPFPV
UniProt O75663: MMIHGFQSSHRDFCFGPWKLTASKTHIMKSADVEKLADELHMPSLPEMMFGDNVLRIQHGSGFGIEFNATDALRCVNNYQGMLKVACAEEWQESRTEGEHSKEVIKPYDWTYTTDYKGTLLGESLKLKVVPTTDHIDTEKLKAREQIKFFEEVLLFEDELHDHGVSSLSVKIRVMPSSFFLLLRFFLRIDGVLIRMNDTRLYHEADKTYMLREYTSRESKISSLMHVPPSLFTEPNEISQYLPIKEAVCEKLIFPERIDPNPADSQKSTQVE
UniProt O14776: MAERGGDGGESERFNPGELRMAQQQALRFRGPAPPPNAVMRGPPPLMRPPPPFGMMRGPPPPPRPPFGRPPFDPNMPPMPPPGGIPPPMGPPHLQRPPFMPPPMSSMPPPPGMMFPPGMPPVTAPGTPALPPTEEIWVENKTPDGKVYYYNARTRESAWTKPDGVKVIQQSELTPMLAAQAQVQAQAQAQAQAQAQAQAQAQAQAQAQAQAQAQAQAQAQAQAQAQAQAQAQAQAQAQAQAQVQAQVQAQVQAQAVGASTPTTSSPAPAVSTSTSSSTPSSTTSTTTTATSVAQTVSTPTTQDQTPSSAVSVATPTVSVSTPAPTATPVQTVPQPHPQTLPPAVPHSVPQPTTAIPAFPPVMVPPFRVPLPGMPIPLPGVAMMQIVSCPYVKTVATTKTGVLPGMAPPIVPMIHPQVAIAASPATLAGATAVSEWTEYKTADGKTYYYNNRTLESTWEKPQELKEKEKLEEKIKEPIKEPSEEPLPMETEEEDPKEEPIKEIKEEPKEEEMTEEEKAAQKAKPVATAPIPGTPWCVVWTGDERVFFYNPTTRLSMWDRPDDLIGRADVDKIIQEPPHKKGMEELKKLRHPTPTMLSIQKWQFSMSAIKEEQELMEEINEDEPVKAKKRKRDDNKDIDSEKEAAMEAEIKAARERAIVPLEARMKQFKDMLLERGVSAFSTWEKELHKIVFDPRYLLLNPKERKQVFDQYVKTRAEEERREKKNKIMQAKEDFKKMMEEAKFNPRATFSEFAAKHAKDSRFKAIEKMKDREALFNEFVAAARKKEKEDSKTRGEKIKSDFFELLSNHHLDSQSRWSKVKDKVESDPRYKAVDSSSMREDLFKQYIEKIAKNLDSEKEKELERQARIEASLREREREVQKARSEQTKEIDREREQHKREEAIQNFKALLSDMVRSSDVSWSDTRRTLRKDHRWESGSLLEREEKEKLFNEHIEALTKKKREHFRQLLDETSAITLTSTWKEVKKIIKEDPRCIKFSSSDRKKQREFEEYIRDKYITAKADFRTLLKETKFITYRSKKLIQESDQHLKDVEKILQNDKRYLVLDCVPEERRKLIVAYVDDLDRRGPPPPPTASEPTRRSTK

What was measured:
Assay in all cases: log2 fold change, soluble protein after heating vs DMSO (PISA); higher = thermal stabilisation; K562 cells, 10 uM, 30 min; active = over 0.2 and 3.5 SD of the protein, either way, in both replicates (recomputed)
erlotinib = compound: C#Cc1cccc(Nc2ncnc3cc(OCCOC)c(OCCOC)cc23)c1 [erlotinib]
Method in brief: (§1)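 Soluble protein was defined as the supernatant after 21,000xg for 90 min. It came from K562 cells at 2×10^6 cells/mL given 10 μM compound for 30 min, heated in aliquots for 3 min across 48°C-58°C, pooled, and extracted in PBS with 0.5% NP-40 at 4°C, and was quantified by TMTpro 16plex LC-MS/MS with equalised channel sums. Thermal stability against control samples, from duplicates, is reported as log2 fold change.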

[1] = compound: C1=CC(=C(C=C1Cl)C2=NC3=NC=CN=C3C(=N2)NC4=CC=NC=C4)F
Method in brief: as §1

[2] = compound: C1=CC(=CC=C1C2=NC3=C(N2)C=C(C=C3)C(=O)N)OC4=CC=C(C=C4)Cl
Method in brief: as §1

[3] = compound: C1=CC2=NC=CN=C2C=C1/C=C/3\C(=O)NC(=O)S3
Method in brief: as §1

[4] = compound: C1=CC=C(C=C1)C2=NC(=C(N2)C3=CC=NC=C3)C4=CC(=C(C=C4)Cl)O
Method in brief: as §1

[5] = compound: C1CCN(C1)C(=O)NC2=CC=CC(=C2)NC3=NC=C(C(=N3)NCCC4=CN=CN4)Br
Method in brief: as §1

[6] = compound: C1CN(CCC1(CC2=CC=C(C=C2)Cl)N)C3=NC=NC4=C3C=CN4
Method in brief: as §1

IRAK-1-4 Inhibitor I = compound: C1COCCN1CCN2C3=CC=CC=C3N=C2NC(=O)C4=CC(=CC=C4)[N+](=O)[O-] [IRAK-1-4 Inhibitor I]
Method in brief: as §1

ibrutinib = compound: C=CC(=O)N1CCC[C@@H](n2nc(-c3ccc(Oc4ccccc4)cc3)c3c(N)ncnc32)C1 [ibrutinib]
Method in brief: as §1

ralimetinib = compound: CC(C)(C)Cn1c(N)nc2ccc(-c3[nH]c(C(C)(C)C)nc3-c3ccc(F)cc3)nc21 [ralimetinib]
Method in brief: as §1

[7] = compound: CC(C)(O)CC(=O)NCCn1ccc2ncnc(Nc3ccc(Oc4cccc(C(F)(F)F)c4)c(Cl)c3)c21
Method in brief: as §1

[8] = compound: CC(C)C1=C2N=C(C=C(N2N=C1)NCC3=CC=CC=C3)NCCCCCCN
Method in brief: as §1

[9] = compound: CC(C)C[C@@H](C=O)NC(=O)[C@H](CC(C)C)NC(=O)[C@H](CC(C)C)NC(=O)OCc1ccccc1
Method in brief: as §1

pinometostat = compound: CC(C)N(C[C@H]1O[C@@H](n2cnc3c(N)ncnc32)[C@H](O)[C@@H]1O)[C@H]1C[C@@H](CCc2nc3cc(C(C)(C)C)ccc3[nH]2)C1 [pinometostat]
Method in brief: as §1

[10] = compound: CC1=C(C2=C(C=C1)C(=O)C3=CC=CC=C3N2CCCN)C
Method in brief: as §1

[11] = compound: C/C(=N\NC(=O)C1=CC(=CC=C1)S(=O)(=O)N2CCOCC2)/C3=C(C=CC(=C3)Cl)O
Method in brief: as §1

[12] = compound: C1=CC2=C(C=CC(=C2)/C=C\3/C(=O)NC(=NCC4=CC=CS4)S3)N=C1
Method in brief: as §1

[13] = compound: C1=CC=C2C(=C1)C3=NNC4=CC=CC(=C43)C2=O
Method in brief: as §1

[14] = compound: CC(=O)c1cnc2ccc(-c3cc(Cl)c(O)c(Cl)c3)nc2c1N[C@H]1CC[C@H](CN(C)C)CC1
Method in brief: as §1

[15] = compound: CC1=C(C(CC(=O)N1)C2=CC=C(C=C2)C(F)(F)F)C(=O)NC3=C(C=C4C(=C3)C=NN4)F
Method in brief: as §1

Target	log2 fold change (erlotinib)	log2 fold change [1]	log2 fold change [2]	log2 fold change [3]	log2 fold change [4]	log2 fold change [5]	log2 fold change [6]	log2 fold change (IRAK-1-4 Inhibitor I)	log2 fold change (ibrutinib)	log2 fold change (ralimetinib)	log2 fold change [7]	log2 fold change [8]	log2 fold change [9]	log2 fold change (pinometostat)	log2 fold change [10]	log2 fold change [11]	log2 fold change [12]	log2 fold change [13]	log2 fold change [14]	log2 fold change [15]
TFE3 (UniProt P19532)	inactive: 0.079	inactive: 0.053	inactive: 0.216	inactive: 0.071	inactive: -0.075	inactive: 0.017	inactive: -0.219	inactive: -0.053	inactive: 0.02	inactive: 0	inactive: -0.051	inactive: -0.325	inactive: 0.004	inactive: 0.03	inactive: -0.03					
TBC1D23 (UniProt Q9NUY8)	inactive: 0.043	inactive: 0.047	inactive: 0.067	inactive: 0.021	inactive: -0.032	inactive: -0.036	inactive: -0.025	inactive: 0.062	inactive: -0.02	inactive: 0.002	inactive: -0.098	active: -0.45	inactive: 0.071	inactive: -0.046	inactive: 0.01	inactive: 0.012	inactive: 0.071	inactive: -0.054	inactive: -0.067	
TGFBR1 isoform 2 (UniProt P36897)	inactive: -0.012		inactive: -0.051	inactive: 0.043	inactive: 0.161	inactive: -0.019	inactive: 0.047	inactive: -0.004	inactive: 0.006	inactive: 0.072	inactive: -0.043	inactive: 0.025	inactive: 0.049	inactive: -0.047	inactive: 0.019	inactive: 0.084	inactive: -0.072	inactive: 0.004	active: 0.329	
TEX264 (UniProt Q9Y6I9)	inactive: 0.099	inactive: 0.034	active: 0.769	inactive: 0	inactive: 0.203	inactive: 0.033	inactive: 0	inactive: -0.011	inactive: -0.049	inactive: 0	inactive: 0.19	inactive: -0.148	inactive: -0.035	inactive: -0.005	inactive: 0.091	inactive: 0.024	inactive: 0.325	inactive: 0.349	inactive: -0.022	
TIMM13 (UniProt Q9Y5L4)	inactive: 0.018	inactive: 0.315	inactive: 0	inactive: 0.111	inactive: 0.063	inactive: -0.025	inactive: -0.006	inactive: -0.031	inactive: 0.012	inactive: -0.008	inactive: -0.145	inactive: 0.048	inactive: -0.085	inactive: -0.092	inactive: 0.092	inactive: 0	inactive: 0.003	inactive: -0.005	inactive: 0.01	
TFPI (UniProt P10646)	inactive: 0.275	inactive: 0.064	inactive: 0.01	inactive: -0.054	inactive: -0.043	inactive: 0.078	inactive: 0.058	inactive: -0.13	inactive: 0.084	inactive: -0.112	inactive: 0.094	inactive: -0.029	inactive: 0.263	inactive: 0.013	inactive: -0.078					inactive: -0.208
TGM2 (UniProt A2A299)	inactive: -0.128		inactive: -0.281		inactive: -0.083	inactive: -0.17	inactive: -0.189			inactive: 0.095		inactive: 0.048	inactive: 0.051		inactive: -0.014	inactive: -0.09	inactive: -0.131	inactive: -0.027	inactive: 0.162	
TCP11L1 (UniProt Q9NUJ3)	inactive: -0.144		inactive: -0.122									inactive: -0.212				inactive: 0.306	inactive: -0.056	inactive: 0.151	inactive: 0.095	inactive: 0.146
TBRG4 (UniProt Q969Z0)	inactive: 0.072	inactive: 0.046	inactive: -0.154	inactive: -0.056	inactive: 0.056	inactive: -0.07	inactive: -0.036	inactive: -0.031	inactive: 0	inactive: -0.134	active: -0.578	inactive: -0.624	inactive: -0.038	inactive: -0.014	inactive: -0.171	inactive: 0.18	inactive: 0.063	inactive: -0.201	inactive: -0.188	
TGFBRAP1 (UniProt Q8WUH2)	inactive: 0.064	inactive: -0.046	inactive: -0.119	inactive: 0.062	inactive: 0.194	inactive: -0.06	inactive: -0.053	inactive: -0.088	inactive: -0.067	inactive: 0.33	inactive: -0.108	inactive: -0.424	inactive: -0.037	inactive: 0.046	inactive: -0.017	inactive: 0.217	inactive: 0.084	inactive: 0.121	inactive: -0.119	
TBC1D14 (UniProt Q9P2M4)	inactive: -0.317	inactive: -0.07	inactive: 0.1		inactive: -0.147	inactive: -0.08	inactive: -0.016			inactive: -0.071	inactive: -0.123	inactive: -0.215	inactive: 0.352		inactive: 0.075	inactive: 0.134	inactive: 0.188	inactive: -0.113	inactive: -0.193	
TBCD (UniProt Q9BTW9)	inactive: 0.022	inactive: 0.059	inactive: 0.022	inactive: 0.029	inactive: -0.025	inactive: -0.016	inactive: -0.021	inactive: 0.019	inactive: -0.019	inactive: 0.01	inactive: -0.034	inactive: -0.083	inactive: 0.01	inactive: -0.061	inactive: -0.086	inactive: 0.06	inactive: 0.069	inactive: -0.01	inactive: -0.004	
TGFBI (UniProt Q15582)	inactive: 0.003	inactive: 0.054	inactive: 0.009	inactive: 0.034	inactive: 0.009	inactive: -0.037	inactive: 0.029	inactive: 0.026	inactive: 0.149	inactive: -0.099	inactive: 0.244	inactive: -0.044	inactive: 0.05	inactive: -0.092	inactive: -0.039	inactive: -0.018	inactive: 0.132	inactive: -0.133	inactive: 0.045	
TELO2 (UniProt Q9Y4R8)	inactive: 0.043	inactive: -0.185	inactive: -0.031	inactive: 0.019	inactive: -0.037	inactive: 0.046	inactive: -0.076	inactive: -0.126	inactive: -0.044	inactive: 0.103	inactive: 0	inactive: -0.375	inactive: 0.049	inactive: 0.204	inactive: 0.125	inactive: 0.102	inactive: -0.039	inactive: 0.053	inactive: 0.008	
TIMM10B (UniProt Q9Y5J6)	inactive: 0.299	inactive: 0.191	inactive: -0.189	inactive: 0.048	inactive: 0.042	inactive: -0.143	inactive: -0.051		inactive: -0.008	inactive: 0	inactive: -0.07	inactive: -0.197	inactive: -0.126		inactive: 0.089	inactive: 0.135	inactive: 0.216	inactive: 0.543	inactive: -0.231	
THTPA (UniProt Q9BU02)	inactive: 0.08		inactive: 0.167	inactive: 0.046	inactive: 0.128	inactive: 0.052	inactive: -0.029		inactive: -0.119	inactive: 0.031		inactive: -0.233	inactive: -0.072		inactive: -0.049	inactive: -0.054	inactive: 0.003	inactive: 0.075	inactive: 0.153	
TGDS (UniProt O95455)	inactive: 0.012		inactive: -0.025			inactive: -0.027	inactive: -0.045					inactive: 0.056			inactive: 0.047	inactive: 0.121	inactive: 0.044	inactive: 0.08	inactive: 0.033	inactive: 0.059
TIPRL (UniProt O75663)	inactive: 0.055	inactive: 0.031	inactive: 0.009	inactive: 0.036	inactive: -0.002	inactive: 0.021	inactive: -0.041	inactive: -0.011	inactive: -0.005	inactive: -0.007	inactive: -0.065	inactive: -0.173	inactive: 0.048	inactive: -0.015	inactive: 0.017	inactive: 0.097	inactive: 0.049	inactive: 0.03	inactive: -0.067	
TCERG1 (UniProt O14776)	inactive: 0.072	inactive: 0.152	inactive: -0.017	inactive: -0.022	inactive: 0.015	inactive: -0.104	inactive: -0.029	inactive: -0.062	inactive: -0.073	inactive: -0.035	inactive: -0.172	inactive: -0.086	inactive: -0.041	inactive: -0.039	inactive: 0.062	inactive: 0.154	inactive: 0.067	inactive: 0.027	inactive: -0.065	

Five entries from above, in markdown.

| Target | log2 fold change (erlotinib) | log2 fold change [1] | log2 fold change [2] | log2 fold change [3] | log2 fold change [4] | log2 fold change [5] | log2 fold change [6] | log2 fold change (IRAK-1-4 Inhibitor I) | log2 fold change (ibrutinib) | log2 fold change (ralimetinib) | log2 fold change [7] | log2 fold change [8] | log2 fold change [9] | log2 fold change (pinometostat) | log2 fold change [10] | log2 fold change [11] | log2 fold change [12] | log2 fold change [13] | log2 fold change [14] | log2 fold change [15] |
| --- | --- | --- | --- | --- | --- | --- | --- | --- | --- | --- | --- | --- | --- | --- | --- | --- | --- | --- | --- | --- |
| TBRG4 (UniProt Q969Z0) | inactive: 0.072 | inactive: 0.046 | inactive: -0.154 | inactive: -0.056 | inactive: 0.056 | inactive: -0.07 | inactive: -0.036 | inactive: -0.031 | inactive: 0 | inactive: -0.134 | active: -0.578 | inactive: -0.624 | inactive: -0.038 | inactive: -0.014 | inactive: -0.171 | inactive: 0.18 | inactive: 0.063 | inactive: -0.201 | inactive: -0.188 |  |
| TGFBRAP1 (UniProt Q8WUH2) | inactive: 0.064 | inactive: -0.046 | inactive: -0.119 | inactive: 0.062 | inactive: 0.194 | inactive: -0.06 | inactive: -0.053 | inactive: -0.088 | inactive: -0.067 | inactive: 0.33 | inactive: -0.108 | inactive: -0.424 | inactive: -0.037 | inactive: 0.046 | inactive: -0.017 | inactive: 0.217 | inactive: 0.084 | inactive: 0.121 | inactive: -0.119 |  |
| TBC1D14 (UniProt Q9P2M4) | inactive: -0.317 | inactive: -0.07 | inactive: 0.1 |  | inactive: -0.147 | inactive: -0.08 | inactive: -0.016 |  |  | inactive: -0.071 | inactive: -0.123 | inactive: -0.215 | inactive: 0.352 |  | inactive: 0.075 | inactive: 0.134 | inactive: 0.188 | inactive: -0.113 | inactive: -0.193 |  |
| TBCD (UniProt Q9BTW9) | inactive: 0.022 | inactive: 0.059 | inactive: 0.022 | inactive: 0.029 | inactive: -0.025 | inactive: -0.016 | inactive: -0.021 | inactive: 0.019 | inactive: -0.019 | inactive: 0.01 | inactive: -0.034 | inactive: -0.083 | inactive: 0.01 | inactive: -0.061 | inactive: -0.086 | inactive: 0.06 | inactive: 0.069 | inactive: -0.01 | inactive: -0.004 |  |
| TGFBI (UniProt Q15582) | inactive: 0.003 | inactive: 0.054 | inactive: 0.009 | inactive: 0.034 | inactive: 0.009 | inactive: -0.037 | inactive: 0.029 | inactive: 0.026 | inactive: 0.149 | inactive: -0.099 | inactive: 0.244 | inactive: -0.044 | inactive: 0.05 | inactive: -0.092 | inactive: -0.039 | inactive: -0.018 | inactive: 0.132 | inactive: -0.133 | inactive: 0.045 |  |
